Assay results published in publication PMC9074275.
No constants are given. Whether binding was seen depends on the method and setting. In cells and extracts the contact can be indirect. Some entries that bind do so weakly or less than the wild type. Sequences can lack the tags named with a protein.

Sequences of proteins named here, by UniProt entry; tags and fusion partners are left off. A change or cut given only in a name is not applied to a line headed by its entry.
UniProt P05556: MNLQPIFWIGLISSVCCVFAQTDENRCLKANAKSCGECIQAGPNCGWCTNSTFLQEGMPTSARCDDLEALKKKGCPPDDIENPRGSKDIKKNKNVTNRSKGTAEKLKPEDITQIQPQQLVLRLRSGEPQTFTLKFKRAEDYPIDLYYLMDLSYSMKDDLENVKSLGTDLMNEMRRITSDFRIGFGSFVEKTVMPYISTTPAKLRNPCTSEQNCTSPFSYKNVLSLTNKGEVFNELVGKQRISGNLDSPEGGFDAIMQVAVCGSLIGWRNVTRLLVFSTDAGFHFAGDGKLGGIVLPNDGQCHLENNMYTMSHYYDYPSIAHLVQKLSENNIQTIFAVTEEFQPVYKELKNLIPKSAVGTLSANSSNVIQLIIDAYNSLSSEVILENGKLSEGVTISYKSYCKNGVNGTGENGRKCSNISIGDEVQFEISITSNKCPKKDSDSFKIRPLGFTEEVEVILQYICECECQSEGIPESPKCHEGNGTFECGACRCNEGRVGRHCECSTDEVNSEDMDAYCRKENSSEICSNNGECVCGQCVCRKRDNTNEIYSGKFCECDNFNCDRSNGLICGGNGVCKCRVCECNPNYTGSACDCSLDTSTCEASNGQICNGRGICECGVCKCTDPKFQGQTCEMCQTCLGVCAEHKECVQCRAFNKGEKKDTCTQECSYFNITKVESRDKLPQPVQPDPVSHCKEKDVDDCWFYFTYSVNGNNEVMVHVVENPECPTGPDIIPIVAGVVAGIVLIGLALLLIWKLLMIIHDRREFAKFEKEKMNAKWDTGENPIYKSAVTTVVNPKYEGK

Biological target: T1, FLAG-tagged Tspan7 (Tetraspanin-7) (human) (UniProt P41732)
T1 sequence: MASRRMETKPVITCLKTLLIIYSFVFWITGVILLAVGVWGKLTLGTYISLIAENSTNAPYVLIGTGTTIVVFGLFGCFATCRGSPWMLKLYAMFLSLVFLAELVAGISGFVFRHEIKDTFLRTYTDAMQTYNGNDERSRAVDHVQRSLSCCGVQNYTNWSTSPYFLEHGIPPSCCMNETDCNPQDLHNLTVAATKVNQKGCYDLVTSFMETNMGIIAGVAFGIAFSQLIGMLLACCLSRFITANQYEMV
Assay: co-IP; Anti-Flag M2 agarose beads on RIPA lysates of U2OS cells expressing FLAG-tagged Tspan7 or control constructs; precipitates rinsed thrice with PBS, SDS-PAGE and western blotting

binding: binds
Substance: integrin β1 (from UniProt P05556 21-798) (receptor)
